Tested on: TgOAT
Settings: read-out: Km of ornithine against TgOAT; Michaelis-Menten fit, 100 μg/mL TgOAT

Question: How did the Km turn out when `NCCC[C@H](N)C(=O)O` [ornithine, L-ornithine] was run?
Answer: The Km was 31 ± 4 mM.
